# doi:10.1101/2021.05.26.445723 (bioRxiv, 2021)
# By UniProt entry, the sequences of proteins in these tests, tags left out. Where a name states a change or a piece, a line headed by the entry shows the natural chain unless it says otherwise.
# UniProt P06701: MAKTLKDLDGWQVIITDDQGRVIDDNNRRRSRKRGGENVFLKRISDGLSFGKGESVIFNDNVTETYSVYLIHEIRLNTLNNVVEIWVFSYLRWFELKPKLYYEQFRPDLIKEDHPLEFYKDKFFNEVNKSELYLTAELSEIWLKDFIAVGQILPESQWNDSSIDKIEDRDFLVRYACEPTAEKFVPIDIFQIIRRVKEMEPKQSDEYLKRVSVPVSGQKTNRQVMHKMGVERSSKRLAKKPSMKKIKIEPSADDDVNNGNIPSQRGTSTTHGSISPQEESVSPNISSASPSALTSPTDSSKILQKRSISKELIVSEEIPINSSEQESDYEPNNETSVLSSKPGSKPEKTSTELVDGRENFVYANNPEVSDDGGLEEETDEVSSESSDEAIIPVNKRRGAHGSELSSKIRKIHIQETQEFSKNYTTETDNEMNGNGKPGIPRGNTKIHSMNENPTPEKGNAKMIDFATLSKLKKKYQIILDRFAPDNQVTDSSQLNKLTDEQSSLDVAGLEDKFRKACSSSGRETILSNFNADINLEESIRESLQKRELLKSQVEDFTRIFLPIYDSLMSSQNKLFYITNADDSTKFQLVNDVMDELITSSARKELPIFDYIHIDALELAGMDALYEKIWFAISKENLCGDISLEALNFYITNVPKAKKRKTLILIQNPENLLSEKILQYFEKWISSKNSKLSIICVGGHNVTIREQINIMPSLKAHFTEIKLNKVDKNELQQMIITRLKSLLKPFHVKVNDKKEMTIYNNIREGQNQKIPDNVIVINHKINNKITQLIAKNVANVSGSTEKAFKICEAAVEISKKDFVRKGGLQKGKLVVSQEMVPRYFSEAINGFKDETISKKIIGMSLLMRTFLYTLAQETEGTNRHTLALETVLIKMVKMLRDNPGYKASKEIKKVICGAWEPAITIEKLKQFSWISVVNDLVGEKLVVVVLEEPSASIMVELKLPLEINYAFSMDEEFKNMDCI
# These are yes or no findings as the source states them, for the method shown. For some of these results: Binding seen in cells or lysates may run through a third protein. Some entries that bind do so weakly or less than the wild type. Sequences can lack the tags named with a protein.
# B1: GAL4-AD-Sae2 (full length) (protein, UniProt P46946 1-345)
# chain: MVTGEENVYLKSSLSILKELSLDELLNVQYDVTTLIAKRVQALQNRNKCVLEEPNSKLAEILCHEKNAPQQSSQTSAGPGEQDSEDFILTQFDEDIKKESAEVHYRNENKHTVQLPLVTMPPNRHKRKISEFSSPLNGLNNLSDLEDCSDTVIHEKDNDKENKTRKLLGIELENPESTSPNLYKNVKDNFLFDFNTNPLTKRAWILEDFRPNEDIAPVKRGRRKLERFYAQVGKPEDSKHRSLSVVIESQNSDYEFAFDNLRNRSKSPPGFGRLDFPSTQEGNEDKKKSQEIIRRKTKYRFLMASNNKIPPYEREYVFKREQLNQIVDDGCFFWSDKLLQIYARC
# What was measured:
# [1] = target: T1, LexA-BD-SAE2^C (S. cerevisiae) (UniProt P46946); assay: two-hybrid
# T1 sequence: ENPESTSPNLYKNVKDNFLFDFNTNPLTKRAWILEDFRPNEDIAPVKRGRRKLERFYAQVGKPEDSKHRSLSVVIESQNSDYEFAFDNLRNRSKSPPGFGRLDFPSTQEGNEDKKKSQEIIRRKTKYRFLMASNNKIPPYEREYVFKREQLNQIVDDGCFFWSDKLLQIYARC
# [2] = target: T2, GAL4-BD-Sae2^C (S. cerevisiae) (UniProt P46946); assay: two-hybrid
# T2 sequence: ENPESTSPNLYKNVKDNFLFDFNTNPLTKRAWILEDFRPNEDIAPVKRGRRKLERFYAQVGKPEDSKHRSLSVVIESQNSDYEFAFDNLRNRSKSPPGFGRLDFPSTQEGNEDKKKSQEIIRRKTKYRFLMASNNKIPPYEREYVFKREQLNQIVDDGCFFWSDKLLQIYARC
# [3] = target: T3, Sae2-GFP (S. cerevisiae) (UniProt P46946); assay: co-IP
# T3 sequence: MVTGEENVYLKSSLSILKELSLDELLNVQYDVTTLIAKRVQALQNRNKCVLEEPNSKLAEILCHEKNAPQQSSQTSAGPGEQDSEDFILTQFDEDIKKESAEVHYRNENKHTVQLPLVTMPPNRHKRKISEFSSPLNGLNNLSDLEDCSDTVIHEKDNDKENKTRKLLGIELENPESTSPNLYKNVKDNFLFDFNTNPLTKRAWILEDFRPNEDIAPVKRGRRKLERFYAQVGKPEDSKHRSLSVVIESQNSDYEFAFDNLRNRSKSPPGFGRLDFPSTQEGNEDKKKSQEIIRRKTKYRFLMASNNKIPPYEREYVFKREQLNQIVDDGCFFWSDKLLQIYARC
# [4] = target: GAL4-BD-Sir3 (full length) (S. cerevisiae) (UniProt P06701); assay: two-hybrid
molecule,measurement,setting,value
GAD-SIR3^464-728 (from UniProt P06701 464-728) (domain or fragment),binding,[1],binds
GAL4-AD-Sir3^SaID (from UniProt P06701 531-723) (domain or fragment),binding,[2],binds
Sir3 (from UniProt P06701 1-978),binding,[3],binds
B1,binding,[4],binds
